According to patent US20160272706A1:
These are yes or no findings as the source states them, for the method shown. Some results given as binding are weak or reduced against the parent protein; the word gives no strength.

Sequences of proteins named here, by UniProt entry; tags and fusion partners are left off. A change or cut given only in a name is not applied to a line headed by its entry. A line that says so, or that is headed by a name, gives the form on record, which may keep a tag or linker.
Cynomolgus IL-13 (Q0PW92, form named): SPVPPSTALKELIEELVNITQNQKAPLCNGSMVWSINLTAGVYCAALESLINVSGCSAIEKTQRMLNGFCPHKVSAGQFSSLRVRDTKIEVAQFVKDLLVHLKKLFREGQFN

Target: Cynomolgus IL-13 (cynomolgus) (UniProt Q0PW92)
Experiment: HTRF receptor-ligand competition: Cynomolgus IL-13 (312.5 pM) binding to labelled human IL-13 Receptor alpha 2; receptor alpha 2 titrated as reference

- binding: binds
B1: human IL-13 Receptorα2 (R&D systems) (receptor, UniProt Q14627 27-343, looked up)
chain: DTEIKVNPPQDFEIVDPGYLGYLYLQWQPPLSLDHFKECTVEYELKYRNIGSETWKTIITKNLHYKDGFDLNKGIEAKIHTLLPWQCTNGSEVQSSWAETTYWISPQGIPETKVQDMDCVYYNWQYLLCSWKPGIGVLLDTNYNLFYWYEGLDHALQCVDYIKADGQNIGCRFPYLEASDYKDFYICVNGSSENKPIRSSYFTFQLQNIVKPLPPVYLTFTRESSCEIKLKWSIPLGPIPARCFDYEIEIREDDTTLVTATVENETYTLKTTNETRQLCFVVRSKVNIYCSDDGIWSEWSDKQCWEGEDLSKKTLLR
modifications: directly labelled with Dylight650
